Experimental data reported in article PMC11208467.
These are yes or no findings as the source states them, for the method shown. In cells and extracts the contact can be indirect. Some results given as binding are weak or reduced against the parent protein; the word gives no strength.

By UniProt entry, the sequences of proteins in these tests, tags left out.
UniProt P42224: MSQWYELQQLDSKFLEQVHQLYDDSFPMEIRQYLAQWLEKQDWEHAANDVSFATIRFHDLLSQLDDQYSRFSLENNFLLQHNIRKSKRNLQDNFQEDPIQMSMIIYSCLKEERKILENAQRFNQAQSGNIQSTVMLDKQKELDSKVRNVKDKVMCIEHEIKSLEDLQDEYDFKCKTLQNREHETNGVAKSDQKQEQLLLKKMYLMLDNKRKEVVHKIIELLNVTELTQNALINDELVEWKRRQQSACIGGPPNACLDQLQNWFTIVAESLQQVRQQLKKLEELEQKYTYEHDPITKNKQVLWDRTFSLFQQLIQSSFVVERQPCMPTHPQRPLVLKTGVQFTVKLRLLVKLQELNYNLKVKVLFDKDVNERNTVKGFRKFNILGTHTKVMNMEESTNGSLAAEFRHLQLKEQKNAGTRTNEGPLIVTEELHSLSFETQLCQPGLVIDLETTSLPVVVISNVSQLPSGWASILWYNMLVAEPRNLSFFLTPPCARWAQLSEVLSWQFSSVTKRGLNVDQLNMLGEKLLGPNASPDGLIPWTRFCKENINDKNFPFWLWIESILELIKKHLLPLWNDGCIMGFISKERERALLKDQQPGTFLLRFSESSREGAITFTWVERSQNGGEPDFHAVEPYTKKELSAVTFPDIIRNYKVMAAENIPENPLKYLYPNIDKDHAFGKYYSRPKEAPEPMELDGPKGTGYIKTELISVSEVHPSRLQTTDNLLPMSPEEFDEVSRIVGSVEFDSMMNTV

Target: Signal transducer and activator of transcription 1 (human (endogenous in BEAS 2b)) (UniProt P42224)
Assay: co-IP; BEAS 2b cells transfected with RSV-NS1 or EV for 24h, untreated (Figure 4D) or stimulated with 1000IU IFN-α for 30min (Figure 4E); lysed in HEPES lysis buffer (50 mM HEPES, 150 mM NaCl, 2 mM EDTA, 1% NP40, 0.5% sodium deoxycholate); immunoprecipitated with anti-STAT1 antibody and protein A/G agarose beads; immunoblotted for STAT1, RSV-NS1, KPNA1

B1: Respiratory syncytial virus non-structural protein 1 (protein, UniProt P0DOE9 1-139)
chain: MGSNSLSMIKVRLQNLFDNDEVALLKITCYTDKLIHLTNALAKAVIHTIKLNGIVFVHVITSSDICPNNNIVVKSNFTTMPVLQNGGYIWEMMELTHCSQPNGLLDDNCEIKFSKKLSDSTMTNYMNQLSELLGFDLNP
**Q.** For B1, which binding is on record?
**A.** Its binding is “binds”.
